Results are given in words; binding and its absence hold for the method and conditions named. In cells and extracts the contact can be indirect. Some results given as binding are weak or reduced against the parent protein; the word gives no strength. Tags and fused reporters may be left off the sequences shown. One block for each molecule: values may come before it.
Experiments:
Assay in all cases: co-IP; HEK293T transiently expressing GSDMB-1-HA or GSDMB-2-HA; IP of GSDMB-HA with blot for Hsp90, and IP of Hsp90 with blot for GSDMB; lysis in 10 mM Tris-HCl pH 7.5, 150 mM NaCl, 5 mM EDTA, 1 mM PMSF; antibody overnight, protein A/G-sepharose 1 hr at 4°C
[1] = biological target: T1, HA-tagged GSDMB-1, transiently expressed in HEK293T cells (human) (UniProt Q8TAX9)
T1 sequence: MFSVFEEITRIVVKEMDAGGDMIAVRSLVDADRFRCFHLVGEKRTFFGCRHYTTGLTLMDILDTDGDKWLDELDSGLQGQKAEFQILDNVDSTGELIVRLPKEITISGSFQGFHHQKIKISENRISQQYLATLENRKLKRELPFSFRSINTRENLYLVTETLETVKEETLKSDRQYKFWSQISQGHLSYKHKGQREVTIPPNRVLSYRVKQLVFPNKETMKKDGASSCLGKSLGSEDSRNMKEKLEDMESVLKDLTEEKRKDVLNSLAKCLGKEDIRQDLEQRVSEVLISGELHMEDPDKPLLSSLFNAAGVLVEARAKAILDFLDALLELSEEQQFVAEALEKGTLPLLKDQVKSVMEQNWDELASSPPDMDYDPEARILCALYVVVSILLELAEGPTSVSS

By UniProt entry, the sequences of proteins in these tests, tags left out.
UniProt P08238: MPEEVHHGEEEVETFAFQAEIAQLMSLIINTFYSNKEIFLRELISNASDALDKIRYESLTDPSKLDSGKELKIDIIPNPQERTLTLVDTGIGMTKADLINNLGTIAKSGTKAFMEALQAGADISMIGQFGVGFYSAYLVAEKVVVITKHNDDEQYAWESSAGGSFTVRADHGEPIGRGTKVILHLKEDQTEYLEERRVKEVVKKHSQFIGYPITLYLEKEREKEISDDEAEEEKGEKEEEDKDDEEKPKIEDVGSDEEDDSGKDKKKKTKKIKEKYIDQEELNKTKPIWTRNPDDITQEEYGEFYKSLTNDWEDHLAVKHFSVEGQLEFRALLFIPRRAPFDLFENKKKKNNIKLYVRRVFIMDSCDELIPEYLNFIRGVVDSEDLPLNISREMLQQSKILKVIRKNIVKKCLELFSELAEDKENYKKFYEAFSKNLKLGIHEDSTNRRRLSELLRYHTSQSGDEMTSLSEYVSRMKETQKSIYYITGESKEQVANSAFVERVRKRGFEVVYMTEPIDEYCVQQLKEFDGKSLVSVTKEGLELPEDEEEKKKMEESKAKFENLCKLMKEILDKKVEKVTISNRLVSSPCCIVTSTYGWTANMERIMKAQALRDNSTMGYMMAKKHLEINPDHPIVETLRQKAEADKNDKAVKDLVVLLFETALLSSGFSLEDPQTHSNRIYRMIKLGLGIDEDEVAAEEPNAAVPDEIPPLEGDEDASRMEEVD

[2] = biological target: T2, HA-tagged GSDMB-2, transiently expressed in HEK293T cells (human) (UniProt Q8TAX9)
T2 sequence: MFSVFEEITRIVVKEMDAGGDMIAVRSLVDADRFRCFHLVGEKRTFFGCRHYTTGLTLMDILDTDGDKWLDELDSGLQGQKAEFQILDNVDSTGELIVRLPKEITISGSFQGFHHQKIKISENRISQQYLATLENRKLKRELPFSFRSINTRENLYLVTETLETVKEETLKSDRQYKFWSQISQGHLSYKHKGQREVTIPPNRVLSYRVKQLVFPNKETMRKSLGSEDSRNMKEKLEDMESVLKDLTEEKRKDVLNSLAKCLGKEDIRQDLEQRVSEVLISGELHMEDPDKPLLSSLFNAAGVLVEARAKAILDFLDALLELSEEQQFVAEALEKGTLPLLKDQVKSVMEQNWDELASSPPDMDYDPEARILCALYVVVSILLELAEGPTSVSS

[3] = biological target: Hsp90, endogenous in HEK293T cells (human (endogenous in HEK293T)) (UniProt P08238)

- binding [1]: binds
- binding [2]: binds
Molecule: Hsp90, endogenous in HEK293T cells (from UniProt P08238 1-724)

- binding [3]: binds
B1: HA-tagged GSDMB-2, transiently expressed in HEK293T cells (protein, UniProt Q8TAX9-2 1-394)
chain: T2 sequence

- binding [3]: binds
B2: HA-tagged GSDMB-1, transiently expressed in HEK293T cells (protein, UniProt Q8TAX9-3 1-403)
chain: T1 sequence
